Experimental data reported in publication PMC8970680.
These are yes or no findings as the source states them, for the method shown. In cells and extracts the contact can be indirect.

Molecular target: T1, pleiotrophin (rat (endogenous in primary rat differentiating immature OLs)) (UniProt P63090)
T1 sequence: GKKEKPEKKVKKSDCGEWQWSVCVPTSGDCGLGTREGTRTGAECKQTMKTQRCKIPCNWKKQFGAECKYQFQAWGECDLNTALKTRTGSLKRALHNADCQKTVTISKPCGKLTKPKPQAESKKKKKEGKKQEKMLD
Experiment: co-IP; endogenous proteins in lysate of primary rat differentiating immature OLs; precipitated with PTN (2 ug antibody overnight, Protein A/G Plus agarose beads, 4°C); co-IP buffer 50 mM Tris-HCl pH 7.5, 150 mM NaCl, 1% Triton X-100, 1 mM EDTA; blots for the receptors

“anaplastic lymphoma receptor tyrosine kinase” was tested, and the binding was “no binding”.
